Test results from paper doi:10.1101/625483.
No constants are given. Whether binding was seen depends on the method and setting. In cells and extracts the contact can be indirect. Some results given as binding are weak or reduced against the parent protein; the word gives no strength.

By UniProt entry, the sequences of proteins in these tests, tags left out. Residues count along the entry.
UniProt Q15116, residues 25-288: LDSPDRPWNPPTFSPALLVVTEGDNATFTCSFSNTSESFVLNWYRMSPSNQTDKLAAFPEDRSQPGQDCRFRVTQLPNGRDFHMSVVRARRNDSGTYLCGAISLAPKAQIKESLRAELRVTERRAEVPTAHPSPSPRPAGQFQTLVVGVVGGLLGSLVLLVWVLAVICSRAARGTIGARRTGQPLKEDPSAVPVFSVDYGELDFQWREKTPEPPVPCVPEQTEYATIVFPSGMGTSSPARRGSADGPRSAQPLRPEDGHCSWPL
UniProt P06730: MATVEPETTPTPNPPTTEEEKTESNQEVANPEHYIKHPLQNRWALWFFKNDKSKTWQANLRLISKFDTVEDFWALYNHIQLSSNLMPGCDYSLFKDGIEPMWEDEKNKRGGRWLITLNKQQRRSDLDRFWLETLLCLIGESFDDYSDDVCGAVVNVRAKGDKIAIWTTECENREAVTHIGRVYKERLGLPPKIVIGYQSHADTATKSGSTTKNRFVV

Molecular target: Programmed cell death protein 1 (PD-1), wild type, overexpressed from pcDNA3.1-Flag-PD-1 (UniProt Q15116)
Test: co-IP

## eIF4E (from UniProt P06730 1-217)
  binding: binds
